The values below come from PMC9677703.

Chains of the proteins cited; added tags and fusions are not shown. Lines headed by an entry give the natural chain unless they say otherwise; changes in a name come on top.
UniProt P61328: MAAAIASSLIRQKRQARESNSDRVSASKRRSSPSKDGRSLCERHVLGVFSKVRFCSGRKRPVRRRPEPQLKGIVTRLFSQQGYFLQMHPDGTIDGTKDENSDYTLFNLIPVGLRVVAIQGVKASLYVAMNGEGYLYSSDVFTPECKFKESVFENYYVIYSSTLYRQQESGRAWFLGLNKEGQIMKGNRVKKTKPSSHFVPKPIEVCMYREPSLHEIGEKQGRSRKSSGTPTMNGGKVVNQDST

No constants are given. Whether binding was seen depends on the method and setting. In cells and extracts the contact can be indirect.

For the assay, the target named is FGF12Δ-His (131–181 FGF12 deletion mutant) (UniProt P61328). Put plainly: pull-down; recombinant FGF12-His or FGF12Δ-His bound to Ni Sepharose (1 h, 4 °C), incubated with U2OS cell lysate (0.15 M KCl, 40 mM Tris, 1% NP-40, 1 mM EDTA, pH 7.2) overnight at 4 °C; western blotting; also with nuclease-treated lysate (no effect); only the target purified. (In western blotting, separated proteins are transferred to a membrane and probed.)

B1: treacle ribosome biogenesis factor 1 (protein, UniProt Q13428 1-1488)
chain: MAEARKRRELLPLIYHHLLRAGYVRAAREVKEQSGQKCFLAQPVTLLDIYTHWQQTSELGRKRKAEEDAALQAKKTRVSDPISTSESSEEEEEAEAETAKATPRLASTNSSVLGADLPSSMKEKAKAETEKAGKTGNSMPHPATGKTVANLLSGKSPRKSAEPSANTTLVSETEEEGSVPAFGAAAKPGMVSAGQADSSSEDTSSSSDETDVEGKPSVKPAQVKASSVSTKESPARKAAPAPGKVGDVTPQVKGGALPPAKRAKKPEEESESSEEGSESEEEAPAGTRSQVKASEKILQVRAASAPAKGTPGKGATPAPPGKAGAVASQTKAGKPEEDSESSSEESSDSEEETPAAKALLQAKASGKTSQVGAASAPAKESPRKGAAPAPPGKTGPAVAKAQAGKREEDSQSSSEESDSEEEAPAQAKPSGKAPQVRAASAPAKESPRKGAAPAPPRKTGPAAAQVQVGKQEEDSRSSSEESDSDREALAAMNAAQVKPLGKSPQVKPASTMGMGPLGKGAGPVPPGKVGPATPSAQVGKWEEDSESSSEESSDSSDGEVPTAVAPAQEKSLGNILQAKPTSSPAKGPPQKAGPVAVQVKAEKPMDNSESSEESSDSADSEEAPAAMTAAQAKPALKIPQTKACPKKTNTTASAKVAPVRVGTQAPRKAGTATSPAGSSPAVAGGTQRPAEDSSSSEESDSEEEKTGLAVTVGQAKSVGKGLQVKAASVPVKGSLGQGTAPVLPGKTGPTVTQVKAEKQEDSESSEEESDSEEAAASPAQVKTSVKKTQAKANPAAARAPSAKGTISAPGKVVTAAAQAKQRSPSKVKPPVRNPQNSTVLARGPASVPSVGKAVATAAQAQTGPEEDSGSSEEESDSEEEAETLAQVKPSGKTHQIRAALAPAKESPRKGAAPTPPGKTGPSAAQAGKQDDSGSSSEESDSDGEAPAAVTSAQVIKPPLIFVDPNRSPAGPAATPAQAQAASTPRKARASESTARSSSSESEDEDVIPATQCLTPGIRTNVVTMPTAHPRIAPKASMAGASSSKESSRISDGKKQEGPATQVSKKNPASLPLTQAALKVLAQKASEAQPPVARTQPSSGVDSAVGTLPATSPQSTSVQAKGTNKLRKPKLPEVQQATKAPESSDDSEDSSDSSSGSEEDGEGPQGAKSAHTLGPTPSRTETLVEETAAESSEDDVVAPSQSLLSGYMTPGLTPANSQASKATPKLDSSPSVSSTLAAKDDPDGKQEAKPQQAAGMLSPKTGGKEAASGTTPQKSRKPKKGAGNPQASTLALQSNITQCLLGQPWPLNEAQVQASVVKVLTELLEQERKKVVDTTKESSRKGWESRKRKLSGDQPAARTPRSKKKKKLGAGEGGEASVSPEKTSTTSKGKAKRDKASGDVKEKKGKGSLGSQGAKDEPEEELQKGMGTVEGGDQSNPKSKKEKKKSDKRKKDKEKKEKKKKAKKASTKDSESPSQKKKKKKKKTAEQTV
modifications: heavily phosphorylated (sites not given)
As to B1, the binding entry was “no binding”.
